# Data from the supplement of paper PMC3334620.
# Whole data set: some 33,000 sequences, median “E-score (-0.5 to 0.5)” near -8e-05, cut for the highest 2% near 0.23. The list shows a part of the results.
# Molecular target: T1, Nrg2 (UniProt P38082)
# T1 sequence: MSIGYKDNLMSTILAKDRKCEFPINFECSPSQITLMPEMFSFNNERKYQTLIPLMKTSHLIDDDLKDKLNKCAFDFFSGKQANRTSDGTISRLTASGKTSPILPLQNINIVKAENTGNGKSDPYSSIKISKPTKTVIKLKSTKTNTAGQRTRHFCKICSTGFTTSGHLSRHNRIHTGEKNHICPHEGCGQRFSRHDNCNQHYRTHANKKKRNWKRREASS
# Assay: PBM E-score (8-mer binding enrichment) (E-score (-0.5 to 0.5)); higher = stronger / more preferred TF binding
# Details: protein concentration: 100 nM; construct: GST-full length
# Method in brief: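 Each ungapped eight-base word and its reverse complement, pooled, received an E-score from the Universal PBM Analysis Suite. Underlying scans, normalised with masliner, recorded fluorescent anti-GST bound to GST-tagged yeast transcription factors. These were applied at about 100-200 nM to universal all-10-mer Agilent arrays double-stranded by primer extension.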
row,Sequence,PBM E-score
1,TGAGCGAA,0.177
2,AGGGTCAT,0.132
3,AGCGTACG,-0.129
4,GTGTAGTA,-0.0167
5,CTGGCTGA,-0.0182
6,AACGTCGT,-0.066
7,AGTCGCAA,0.0495
8,ATTAATAG,0.226
9,AAGGCCCT,0.187
10,CCCACCAA,0.0517
11,CTCAAAGC,0.0269
12,AATCGGTA,-0.0396
13,AGTTGGAA,-0.0362
14,CATTCGCA,-0.0034
15,GAATGTGA,-0.0219
16,TCACCTAA,-0.0162
17,GAGAGCTC,-0.108
18,CTCCACTA,0.0636
19,AATCGCGT,0.186
20,AGATCCAG,0.168
21,ATCAGTTC,-0.0751
22,GCCTTGAC,-0.122

row,Sequence,PBM E-score
1,AAGTAACA,0.191
2,AAAAAGGT,0.0514
3,ACTACGAG,-0.0332
4,CCTGCTCA,0.0671
5,CCGCTGAA,0.0746
6,ATTGAAGC,-0.0755
7,TATTTGAA,0.0187
8,CCAACACA,0.134
9,AATCGCAT,0.245
10,AAGGTCTA,-0.111
11,CTTAGACA,-0.108
12,ACTCATAC,0.0469
13,CCAGCGGC,-0.0283
14,CTAGTAGC,-0.0886
15,GCCCAGAA,0.0139
16,CCTTAGCG,-0.131
17,CGGTGACG,-0.00929
18,GCGCGCAC,0.165
19,CTCATCTC,0.207
20,ATAACTAT,-0.013
21,TACTAATA,0.0648
22,GGCATGAC,-0.106

# No new results follow: an excerpt of the list.
row,Sequence,PBM E-score
15,GCCCAGAA,0.0139
16,CCTTAGCG,-0.131
17,CGGTGACG,-0.00929
18,GCGCGCAC,0.165

# More results:

row,Sequence,PBM E-score
1,CGCCTCAA,-0.0538
2,AATCCGGA,0.164
3,AATGCGTG,-0.0113
4,CACTTTTA,0.0308
5,CGTGTGTA,0.0917
6,GTTAGACA,0.102
7,GTCGAGTA,-0.0512
8,AACGCGAA,0.249
9,AGTGAGTA,0.214
10,ACGCCGCC,-0.217
11,GGCTCTTA,-0.275
12,AACCTCAA,-0.0094
13,CATATGCG,0.0817
14,CGTATTTC,0.0134
15,ATTTACCG,-0.0198
16,GTCCGGTA,-0.0698
17,TCGGAAGA,-0.312
18,ATGGGGTA,0.127
19,GATTCGAC,0.141
20,ATGGATCC,0.102
21,CGAGGACG,-0.00679
22,GGGTTGTA,0.0662

row,Sequence,PBM E-score
1,GTACCAAA,0.114
2,TGCGCGAA,0.175
3,TCCATCGA,-0.021
4,AAATCGCG,0.233
5,GGTAGAGA,0.0968
6,TCTACTAA,0.178
7,CAATACCA,0.192
8,ACGGAGCA,0.0328
9,ACTTTACT,0.077
10,CCTCCACC,-0.238
11,CAACTGGC,0.0483
12,ACGATCAA,0.0329
13,GCTGACCC,-0.173
14,GAGATCGA,0.147
15,GCGGCGAA,-0.0251
16,GGGCTTAA,-0.194
17,ATTGTAGA,0.124
18,TAGTAGAA,0.00186
19,GGGGTACC,-0.19
20,CTGGGGAC,-0.207
